Results of single-concentration screens

The chains behind the UniProt entries cited, without tags or fusion partners. Residues count along the entry.
UniProt P9WPC5, whole entry: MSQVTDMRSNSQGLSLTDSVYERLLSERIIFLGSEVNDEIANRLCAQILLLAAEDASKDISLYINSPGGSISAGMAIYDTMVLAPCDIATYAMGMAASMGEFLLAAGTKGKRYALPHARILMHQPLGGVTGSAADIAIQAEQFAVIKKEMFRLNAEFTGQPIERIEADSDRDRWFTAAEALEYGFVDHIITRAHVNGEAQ
UniProt P9WPC3, whole entry partner: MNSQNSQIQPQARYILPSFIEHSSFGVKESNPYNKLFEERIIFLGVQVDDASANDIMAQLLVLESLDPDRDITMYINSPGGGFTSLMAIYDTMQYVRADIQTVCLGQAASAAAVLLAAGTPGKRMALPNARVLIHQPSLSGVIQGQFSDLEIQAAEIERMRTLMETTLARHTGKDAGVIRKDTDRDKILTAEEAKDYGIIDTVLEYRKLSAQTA
UniProt P9WNZ1, whole entry: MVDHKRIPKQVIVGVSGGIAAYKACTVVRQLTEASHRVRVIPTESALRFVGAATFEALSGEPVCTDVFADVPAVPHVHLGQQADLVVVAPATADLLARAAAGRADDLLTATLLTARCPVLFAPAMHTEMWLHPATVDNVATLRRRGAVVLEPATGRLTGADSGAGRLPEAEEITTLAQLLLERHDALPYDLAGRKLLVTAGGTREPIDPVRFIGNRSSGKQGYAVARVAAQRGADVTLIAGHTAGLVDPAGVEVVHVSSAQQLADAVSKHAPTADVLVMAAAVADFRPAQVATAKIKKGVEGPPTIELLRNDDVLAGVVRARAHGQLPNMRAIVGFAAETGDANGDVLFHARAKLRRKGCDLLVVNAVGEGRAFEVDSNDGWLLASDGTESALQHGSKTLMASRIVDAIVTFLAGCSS
UniProt A4I591, 1-473: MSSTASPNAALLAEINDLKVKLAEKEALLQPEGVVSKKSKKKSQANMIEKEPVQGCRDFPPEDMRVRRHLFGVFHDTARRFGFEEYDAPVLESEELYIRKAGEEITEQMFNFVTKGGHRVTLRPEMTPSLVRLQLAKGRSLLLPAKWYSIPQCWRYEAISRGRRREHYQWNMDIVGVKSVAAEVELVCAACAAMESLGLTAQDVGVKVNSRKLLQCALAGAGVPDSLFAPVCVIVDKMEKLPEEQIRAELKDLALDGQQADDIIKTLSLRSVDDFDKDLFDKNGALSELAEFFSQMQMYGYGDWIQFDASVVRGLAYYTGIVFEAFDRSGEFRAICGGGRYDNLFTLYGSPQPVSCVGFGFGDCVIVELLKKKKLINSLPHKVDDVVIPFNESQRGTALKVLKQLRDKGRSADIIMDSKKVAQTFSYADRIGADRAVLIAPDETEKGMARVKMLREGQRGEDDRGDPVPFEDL

From ChEMBL document CHEMBL3988442, “University of Dundee, Small-Polar-MMV Screening Library” (2021).

Values are the deposited “Percent Effect”, in %. The record does not define 0% and 100%; most values in the screen are far below 50% and negative numbers occur (in some assays of this library far below -100). Compounds were drawn at random from those tested, without regard to their results. Two or more numbers in one place are separate tests of the same structure; such repeats can differ widely. A dash means the value is not listed here; it may have been measured.

ClpP1P2: 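Protease assay of ClpP1P2, read by the AMC dye that it sets free. Target: ClpP1P2, Mycobacterium tuberculosis (UniProt P9WPC5 and UniProt P9WPC3). Compounds at 50 µM. Direction is inferred from only a few compounds that gave an IC50; most scored high, so higher reads as stronger inhibition. Most other retested compounds had strongly negative values. About 69,000 compounds were tested under these conditions; 0.015% (about 10) showed 50% or more at least once.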
CoaBC: 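Coenzyme A biosynthesis protein CoaBC, Mycobacterium tuberculosis (UniProt P9WNZ1). Enzyme assay of CoaBC with a phosphate dye (Biomol Green) read at 650 nm. Compounds at 30 µM. Higher reads as stronger inhibition, judged from the few compounds that gave an IC50. Most strong results did not repeat in a second test. Size under these conditions: about 67,000 compounds, about 40 of them at 50% or above in at least one test.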
Leishmania in macrophages: 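Cell assay of Leishmania donovani living inside macrophages; the read-out is not stated. Tested at 30 µM. Direction is inferred from retests: higher values go with stronger inhibition. About 69,000 compounds were tested under these conditions; 1.5% (about 1,000) showed 50% or more at least once.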
LiHisRS: 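Histidine-tRNA ligase, Leishmania infantum (UniProt A4I591). Enzyme assay of histidyl-tRNA synthetase; the read-out is not stated. Compounds at 30 µM. Direction is inferred from retests: higher values go with stronger inhibition. The assay is labelled LdHisRS but filed under L. infantum. About 69,000 compounds were tested under these conditions; 0.6% (about 410) showed 50% or more at least once.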

compound,ClpP1P2,CoaBC,Leishmania in macrophages,LiHisRS
O=C(O)CC(CC(=O)NCCc1cccs1)c1cccs1 (stereo not shown),-11.83,0,-61.45,28.57
Cc1nc(N2CCCC2)nc(N2CCC(O)(C(=O)O)CC2)c1C,-9.908,2.733,-15.31,9.524
Cc1cnn(CCC(=O)N2CCC3(CCC(=O)N(CC4CC4)C3)CC2)c1,11.41,6.061,3.554,24.47
CC1CCN(C(=O)C(C)N2CCN(c3nccs3)CC2)CC1 (stereo not shown),-5.554,2.408,34.44,24.05
CN(Cc1n[nH]c2c1CCC2)C(=O)CCc1cc2n(n1)CCNC2,9.82,1.077,3.471,6.557
O=C(COCCOc1ccccc1)NC1CCN(c2ccccn2)CC1,7.433,-19.27,34.53,19.1
O=C(O)[C@@H]1CN(C(=O)CCC(F)(F)F)C[C@H]1c1ccncc1,-7.589,1.062,24.38,-0.885
C[C@H](O)CNc1cc(-c2ccccc2)ncn1,1.843,0.6024,6.225 & 5.04,11.43
O=C(O)CC[C@@H]1CN(c2ncnc3[nH]ccc23)CC[C@@H]1N1CCOCC1,-3.714,1.923,-7.399,12.5
O=C(O)C(F)(F)F.[H][C@]12CCC[C@@]1(COCc1cccnc1)CN(C(=O)c1ccsc1)C2,-,-,30.38,-
Cc1ncsc1CN1C[C@@H](OCc2ccncc2)[C@H]2OCCC[C@H]21,-3.535,4.206,-,17.11
CCN(C(=O)CNc1cc(C)c(F)cc1C(N)=O)C1CC1,-52.76,10.53,25.69,23.94
Cc1noc(CCNS(=O)(=O)N2CCCC2c2ccco2)n1 (stereo not shown),6.959,2.991,-7.344,6.838
CN(Cc1ccc(Cl)s1)C(=O)CN1CC(n2cccn2)C1,-36.51,1.463,15.05,32
Cn1ccc(CN2CCC(OCc3ccccc3)CC2)cc1=O,-2.347,1.161,11.45,5.217
Cc1ccc2c(n1)N(CC(C)C)CCN(S(C)(=O)=O)C2.O=C(O)C(F)(F)F,-,-,11.1,-
Cn1ncc2c(NC3CN4CCC3CC4)nc(-c3ccncc3)nc21 (stereo not shown),-6.075,1.887,-5.242,19.47
O=S1(=O)NCC2(CCN(Cc3ccc(Cl)s3)C2)Oc2ncccc21 (stereo not shown),10.65,-1.316,-5.293,6.897
Fc1cnc(N2CCCC3(CCN(Cc4ccoc4)C3)C2)nc1 (stereo not shown),0.1937,-17.65,-,21.1
CN(C(=O)c1ccc(Cl)cn1)c1ccccc1S(C)(=O)=O,-1.415,6.024,15.03,19.4
CN(C)C(=O)C1(CCCc2ccncc2)CCCN1 (stereo not shown),9.945,4.167,-5.539,25
CC(SCC(=O)NCCC#N)c1ccc(Cl)cc1 (stereo not shown),4.558,9.81,25.33,19.48
Cc1nnc(SCC(=O)NCc2ccc3c(c2)CCC(=O)N3)s1,-1.341,-1.402,13.41,16.81
Fc1ccc(CNCC2OCCc3cn(CC4CC4)nc32)cc1.O=C(O)C(F)(F)F.O=C(O)C(F)(F)F (stereo not shown),-,-,26.2,-
O=C1CC(Cc2ccc(NC(=O)c3cccc(F)c3)cc2)C(=O)N1 (stereo not shown),-8.517,0.7335,-0.5747,16.13
O=C(CCNC(=O)N1CCC(c2ccccc2)C1)N1CCCCC1 (stereo not shown),-13.96,4.822,6.122,10.2
[H][C@@]12COC(=O)N1CCN(C(=O)COC)C2,-,-,-2.936,-
CN(CCc1ccccn1)C1CCCN(Cc2noc(C3CC3)n2)C1 (stereo not shown),10.01,1.805,-0.3758,11.24
CC(C)CC(O)C1CCN(C(=O)c2ccc(C(F)(F)F)nc2O)CC1 (stereo not shown),-8.07,-4.797,27.96,9.677
[H][C@@]12CNCC[C@]1(O)CCN(c1ccnc3ccccc13)C2,-,-,13.14,-
O=C1NCCCCC1NS(=O)(=O)N1CCCCCC1 (stereo not shown),9.583,5.645,16.9,22.81
[H][C@@]12COC[C@@H](CC(=O)NCCOC)[C@]1([H])CN(C(=O)C1CCOCC1)C2,-,-,11.97,-
Nc1nccnc1CC1CCCN(Cc2ccnc3ccccc23)C1 (stereo not shown),-27.19,5.463,36.01,7.042
Cc1ccc(C(=O)CN(C2=NCCCCC2)c2ccccc2)cc1,-16.79,4.051,-,10.53
Cc1cnc(N2CCC3(CCCN3C(=O)c3ccco3)CC2)nc1,-0.4019,5.277,-,21.15
CCc1ccc(CCC(=O)NCc2nnc[nH]2)cc1,2.128,6.38,16.58,11.67
CCCc1ccc2oc(C(=O)N3CCN(CCC(N)=O)CC3)c(C)c2c1,-9.385,2.033,19.97,6.557
CC(=O)Nc1nc(C2CCN(C(=O)C3CCC3)CC2)cs1,-8.82,-0.7264,-14.01 & -14.63,0
NC(=O)NCCC(=O)NCc1nn(-c2ccccc2)c2c1CCC2,-42.46,3.836,-0.4205,14.68
O=C(NC[C@H]1Cn2c(-c3ccccc3)cnc2CO1)C1CCOCC1,-1.738,8.168,20.96,22.97
CC(C)(C)c1coc([C@@H]2COCCN2CC2CC2)n1,-9.184,9.234,22.5,21.62
CCc1ncncc1C(=O)NCCNS(=O)(=O)c1ccc(C)cc1,-3.096,3.175 & 20.91,-13.78,27.4
O=C(C1CCC1)N1C[C@@H]2CN(c3ccccc3)C(=O)[C@@H]2C1,-3.94,3.99,-,9.615
O=C(O)C(F)(F)F.[H][C@@]12CN(Cc3nccn3C)C[C@@]1([H])N(CC1CCCC1)C(=O)CO2,-,-,25.29,-
COc1ncccc1C1CC(=O)NCc2nc3ccccn3c21 (stereo not shown),-2.26,1.587,3.372,22.22
COc1ccc(OC)c(C(C)NS(=O)(=O)c2cnn(C)c2)c1 (stereo not shown),-8.003,-2.685,9.346,8.046
CN(C)C(C(=O)N1CC(Oc2ccccc2F)C1)c1ccccc1F (stereo not shown),-10.59,0.8032,18.69,28.36
Cc1ccccc1CS(=O)(=O)CC(=O)NC1CCCCNC1=O (stereo not shown),14.34,-0.4819,24.42,21.92
CC(C)c1ncncc1C(=O)NCCN1CCCC1,-1.401,-2.411,12.05,17.7
CNC(=O)[C@H]1C[C@@H]2CN(C(=O)c3cnc(C)cn3)C[C@@H]2N1C,2.451,-0.2463,-,16
Cc1ccc(CC(=O)NC(C)C(=O)N2CCS(=O)(=O)CC2)s1 (stereo not shown),-8.106,5.769,2.884,39.73
O=C1CC(c2ccc(C(=O)O)cc2)c2ncn(-c3cccc(F)c3)c2N1 (stereo not shown),3.945,8.21,13.94,46.6
CN(C)C(=O)CN1CCC2(CCN(C(=O)N(C)C)CC2)C1=O,-3.041,-1.931,-7.178,-1.923
Cn1cnc2c1CCN(Cc1csc(C3CCCC3)n1)C2,-29.16,8.602,35.91,32.69
CCc1noc(C(C)N2CCC(C)CC2)n1 (stereo not shown),-14.45,0.7833,28.8,12.07
COc1ccc2c(c1)C1(CCN(Cc3ccccn3)CC1)N(C)CC2,-4.987,-25.05,-,12.28
[H][C@]12CNC[C@@]1(C(=O)NCCS(=O)(=O)NC)CN(C1CCCC1)C2,-,-,-1.78,-
CCc1nc(C2CCCN2C(=O)c2cnc3n[nH]c(C)c3c2)no1 (stereo not shown),-2.122,-16.41,-29.31,16.85
CC(C)N1CCC2(CC1)C(=O)N(c1cccnc1)c1c(F)cccc12.Cl,-,-,26.63,-
O[C@@H]1CN(Cc2cc(Cl)cc3cccnc23)C[C@@H]1O,-1.983,14.9,12.96,5.714
O=C(c1ccc(NCc2cccc(F)c2)cc1)N1CCCC1,-11.26,1.339,-17.07,7.292

4 of the entries, repeated:

* O=C(COCCOc1ccccc1)NC1CCN(c2ccccn2)CC1 | ClpP1P2: 7.433%; CoaBC: -19.27%; Leishmania in macrophages: 34.53%; LiHisRS: 19.1%
* CNC(=O)[C@H]1C[C@@H]2CN(C(=O)c3cnc(C)cn3)C[C@@H]2N1C | ClpP1P2: 2.451%; CoaBC: -0.2463%; LiHisRS: 16%
* CCCc1ccc2oc(C(=O)N3CCN(CCC(N)=O)CC3)c(C)c2c1 | ClpP1P2: -9.385%; CoaBC: 2.033%; Leishmania in macrophages: 19.97%; LiHisRS: 6.557%
* CCc1ccc(CCC(=O)NCc2nnc[nH]2)cc1 | ClpP1P2: 2.128%; CoaBC: 6.38%; Leishmania in macrophages: 16.58%; LiHisRS: 11.67%